PubChem BioAssay AID1259254 | NCATS | 2017

Aim: 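Genome-wide screen for genes that prevent DNA re-replication in cancer cells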 (primary screen)
System: human HCT116 colorectal cancer cells
Reagents: single siRNA against human genes
Duration: 3 days
Detection: 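Nuclei stained with Hoechst and imaged; cell-cycle phase assigned by DNA content; G2 share scaled per plate, non-targeting siRNA 0%, GMNN siRNA 100%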
Direction: G2 robust z-score and G2 cells, % of GMNN control: higher = more G2 cells, more excess DNA replication; raw share of cells in G2: higher = larger share of cells with G2 DNA content
Active means: 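An siRNA counts as active if its G2 robust z-score lies at least 5 MADs above the screen median; here such calls match roughly 38% of GMNN control or more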
This is an unselected part of about 59,000 deposited reagents. About 1,550 of all reagents (2.6%) were called active. 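G2 share is only a proxy for re-replication; each gene was hit by three separate siRNAs, and active genes were retested.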 Raw values vary from plate to plate and are shown uncorrected. Reagent sequences are not shown. Not stated in the record: the amount of reagent.

| Gene | PubChem SID | G2 robust z-score | G2 cells, % of GMNN control | raw share of cells in G2 (%) | Outcome |
| --- | --- | --- | --- | --- | --- |
| ZFPM2 | SID160736236 | 0.0203 | 3.11 | 4.93 | inactive |
| ZFPM2 | SID160736237 | -1.39 | -6.82 | 3.63 | inactive |
| ZFPM2 | SID160736239 | 1.18 | 11.3 | 7.94 | inactive |
| ZFHX4 | SID160749408 | 1 | 10 | 7.82 | inactive |
| ZFHX4 | SID160749409 | -0.152 | 1.89 | 5.49 | inactive |
| ZFHX4 | SID160749410 | -0.219 | 1.43 | 6.02 | inactive |
| LSM4 | SID160737013 | 0.321 | 5.22 | 8.53 | inactive |
| LSM4 | SID160737014 | 1.56 | 14 | 8.83 | inactive |
| LSM4 | SID160737015 | -1.23 | -5.66 | 2.14 | inactive |
| GPC6 | SID160725136 | -1.2 | -5.47 | 2.86 | inactive |
| GPC6 | SID160725142 | -0.677 | -1.8 | 3.19 | inactive |
| GPC6 | SID160725152 | 0.279 | 4.93 | 5.2 | inactive |
| PLA2G2E | SID160739511 | -0.698 | -1.94 | 3.53 | inactive |
| PLA2G2E | SID160739512 | 3.92 | 30.5 | 15.5 | inactive |
| PLA2G2E | SID160739513 | -0.398 | 0.167 | 6.03 | inactive |
| FUBP3 | SID160721179 | -0.351 | 0.495 | 4.88 | inactive |
| FUBP3 | SID160721180 | -0.707 | -2.01 | 4.56 | inactive |
| FUBP3 | SID160721181 | 0.158 | 4.08 | 6.39 | inactive |
| HDAC5 | SID160723930 | 0.349 | 5.43 | 5.05 | inactive |
| HDAC5 | SID160723936 | 0.434 | 6.02 | 7.48 | inactive |
| HDAC5 | SID160723941 | -0.64 | -1.54 | 4.13 | inactive |
| CDKL1 | SID160720871 | -0.14 | 1.98 | 6.2 | inactive |
| CDKL1 | SID160720872 | 0.511 | 6.56 | 7.58 | inactive |
| CDKL1 | SID160720873 | -0.145 | 1.95 | 4.31 | inactive |
| SPMIP9 | SID160732652 | -0.159 | 1.85 | 3.35 | inactive |
| SPMIP9 | SID160760864 | 0.168 | 4.15 | 5.09 | inactive |
| SPMIP9 | SID160760865 | 3.52 | 27.7 | 12.2 | inactive |
| HR | SID160744409 | 0.262 | 4.81 | 6.34 | inactive |
| HR | SID160744410 | 0.256 | 4.77 | 8.52 | inactive |
| HR | SID160744411 | -0.603 | -1.27 | 3.98 | inactive |
| OR1A2 | SID160737750 | 0.37 | 5.57 | 6.51 | inactive |
| OR1A2 | SID160737751 | -0.757 | -2.36 | 2.92 | inactive |
| OR1A2 | SID160737752 | 0.141 | 3.96 | 4.68 | inactive |
| HNRNPK | SID160775140 | 4.33 | 33.4 | 17.2 | inactive |
| HNRNPK | SID160775141 | 2.38 | 19.7 | 13.2 | inactive |
| HNRNPK | SID160775142 | 2.08 | 17.6 | 10.7 | inactive |
| LOC390282 | SID160766478 | -0.44 | -0.126 | 3.73 | inactive |
| LOC390282 | SID160766479 | -0.46 | -0.266 | 3.29 | inactive |
| LOC390282 | SID160766480 | -0.139 | 1.99 | 5.49 | inactive |
| MAP3K8 | SID160746819 | 0.342 | 5.37 | 7.38 | inactive |
| MAP3K8 | SID160746828 | 1.76 | 15.3 | 10.6 | inactive |
| MAP3K8 | SID160746839 | -0.309 | 0.792 | 4.3 | inactive |
| TUT1 | SID160748073 | 0.623 | 7.35 | 7.78 | inactive |
| TUT1 | SID160748074 | 0.229 | 4.58 | 6.66 | inactive |
| TUT1 | SID160748076 | -0.00214 | 2.95 | 3.48 | inactive |
| ITGAE | SID160731149 | -1.2 | -5.45 | 3.61 | inactive |
| ITGAE | SID160775981 | 1.75 | 15.3 | 9.8 | inactive |
| ITGAE | SID160775982 | -0.286 | 0.952 | 5.39 | inactive |

Copied from the list:
For “G2 cells, % of GMNN control”, ZFHX4 [SID160749410] reads 1.43
ITGAE [SID160775981], G2 cells, % of GMNN control: 15.3
For “G2 cells, % of GMNN control”, ZFPM2 [SID160736239] reads 11.3
For “raw share of cells in G2 (%)”, FUBP3 [SID160721181] reads 6.39
TUT1 [SID160748073], Outcome → inactive
CDKL1 [SID160720873], G2 robust z-score → -0.145
